The values that follow come from patent US7087248B2, “Pharmaceutical component based on human parathyroid hormone and a pharmaceutical composition for intranasal administration comprising the component” (Daiichi Asubio Pharma Co., Ltd., priority 2000, dated 2006).

In the data set the test system is nasal cavity. The data set is described as follows: Sensory test (1): odor and irritation evoked by nasal spraying. The settings on record: four healthy normal adult males. Here is the method: As the control, physiological saline was used.
Then, aqueous solutions of various organic acids were prepared, in order to identify the factors responsible for the odor and irritation the preparation evokes when it is applied in the nasal cavity. The organic acid employed included acetic acid, citric acid and tartaric acid; oxalic acid; malic acid; phthalic acid; ascorbic acid; adipic acid; and glycolic acid.
Prepared were 0.1 v/v %, 0.2 v/v %, 0.3 v/v % and 0.6 v/v % aqueous solutions of acetic acid, and 0.6 w/v % aqueous solutions of citric acid, tartaric acid, oxalic acid, malic acid, phthalic acid, ascorbic acid, adipic acid, and glycolic acid. The solution was sprayed into the nasal cavity; and the odor and irritation were assessed in the same manner as above (testers consisting of four healthy normal adult males).
In the same manner as above, the test solution was applied in the nasal cavity, and the odor and irritation evoked thereby were assessed (testers consisting of 12 healthy normal adult males).

Setting [1] is: 0.6 w/v % aqueous solution sprayed into the nasal cavity.

“Also recorded” adds a separate entry of the source.

On to `CC(=O)O` [Acetic acid], for which the Odor result is, setting by setting: (0.1 v/v % aqueous solution sprayed into the nasal cavity) “Scarcely any odor present”; (0.2 v/v % aqueous solution sprayed into the nasal cavity) “Slight acidic odor present”; (0.3 v/v % aqueous solution sprayed into the nasal cavity) “strong acidic odor; also recorded: Acidic odor present”; (0.6 v/v % aqueous solution sprayed into the nasal cavity) “strong acidic odor; also recorded: Acidic odor present”. In the case of `O=C(O)CCCCC(=O)O` [Adipic acid], the Odor entry under setting [1] is “No odor present”.

With `O=C1O[C@H]([C@@H](O)CO)C(O)=C1O` [Ascorbic acid], the Odor result under setting [1] was “No odor present”. As to `O=C(O)CC(O)(CC(=O)O)C(=O)O` [Citric acid], under setting [1], the Odor entry was “No odor present”. On the same count and under the same terms, as for `O=C(O)CO` [Glycolic acid], the entry is “No odor present”. For the compound `O=C(O)CC(O)C(=O)O` (stereo not drawn) [Malic acid], the Odor entry under setting [1] was “No odor present”.

For `O=C(O)C(=O)O` [Oxalic acid], the Odor entry under setting [1] is recorded as “No odor present”. For `O=C(O)c1ccccc1C(=O)O` [Phthalic acid], the Odor result under setting [1] is “No odor present”. The same measure, in the same setting: for `O=C(O)C(O)C(O)C(=O)O` (stereo not drawn) [Tartaric acid] the value was “No odor present”.
